Among the data in PMC3199733, “Expression, purification, electron microscopy, N-glycosylation mutagenesis and molecular modeling of human P2X4 and Dictyostelium discoideum P2XA” (Biochimica et Biophysica Acta, 2011) are binding values, retold here.

These are yes or no findings as the source states them, for the method shown. Where a sequence is shown, tags or fusion partners need not be part of it.

The assay deals with human P2X4-(His)10 (human) (UniProt Q99571). As to the kind of experiment: native gel or EMSA; PFO-PAGE with anti-His Western blot of Sf9 membranes solubilised in 1% (w/v) SDS (control lane).

B1: human P2X4-(His)10 (receptor, UniProt Q99571 1-388, looked up)
chain: MAGCCAALAAFLFEYDTPRIVLIRSRKVGLMNRAVQLLILAYVIGWVFVWEKGYQETDSVVSSVTTKVKGVAVTNTSKLGFRIWDVADYVIPAQEENSLFVMTNVILTMNQTQGLCPEIPDATTVCKSDASCTAGSAGTHSNGVSTGRCVAFNGSVKTCEVAAWCPVEDDTHVPQPAFLKAAENFTLLVKNNIWYPKFNFSKRNILPNITTTYLKSCIYDAKTDPFCPIFRLGKIVENAGHSFQDMAVEGGIMGIQVNWDCNLDRAASLCLPRYSFRRLDTRDVEHNVSPGYNFRFAKYYRDLAGNEQRTLIKAYGIRFDIIVFGKAGKFDIIPTMINIGSGLALLGMATVLCDIIVLYCMKKRLYYREKKYKYVEDYEQGLASELDQ
notes: human P2X4 receptor, full-length wild type; N-glycosylated (insect-cell type); also called hP2X4; source: Sf9 cells, baculovirus-infected; in membranes, untreated or detergent-solubilised
For the molecule B1, the binding result is reported as “no binding (condition: solubilised in 1% (w/v) SDS)”.
